From the supplement of paper PMC12889115
The other results are listed elsewhere or left out. Values are raw readings; no control value is given beside them.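 First-pass screen: polymyxin B was added at a level that permeabilizes the Salmonella outer membrane while sparing the inner membrane. DMSO wells, with and without polymyxin B, defined maximum growth. Because plates differed from one another, each plate's data were ranked separately and the compounds with the lowest OD600 were carried forward as hits.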

Tested on: Salmonella enterica serovar Typhimurium SL1344
Assay: bacterial growth OD600 after 18 h with compound and polymyxin B; higher = more bacterial growth (less inhibition)
Settings: 50 µM, Mueller-Hinton broth

SMILES	bacterial growth OD600 (polymyxin B 0.75 µg/mL)	bacterial growth OD600 (polymyxin B 1 µg/mL)
CCC1CN(CCNC(=O)c2sccc2Cl)Cc2cc(OC)ccc2O1 (stereo not given)	0.715	
COc1cc(CC2(CCC(=O)N3CCCC(c4nc5ccccc5o4)C3)CCC(=O)N2)ccc1F (stereo not given)	0.903	
CN(Cc1ccc(F)cc1)c1ccc(OCC(=O)N2CCN(c3ncc4ccccc4n3)CC2)nn1	0.301	
COC(=O)c1ccc(CN2CCCC(CO)(Cc3ccccc3F)C2)cc1 (stereo not given)		1.16
O=C1CCC(CCC(=O)N2CCC(C(O)c3cccs3)CC2)(Cc2ccccc2)N1 (stereo not given)	0.772	
COc1ccc(OC2CCN(C(C)=O)CC2)c(C(=O)N2CC[C@@H]3CCCC[C@H]3C2)c1		0.585
Cc1occc1C(=O)NC1CC(=O)N(CCCc2ccccc2)C1 (stereo not given)		0.948
Cc1ccc2c(c1)CN(CC(=O)N1CCC(c3ccncc3)CC1)CC(c1ccsc1)O2 (stereo not given)	0	
CCN(CC)C(=O)Cn1cc(C(=O)NCCC(c2ccccc2)c2ccco2)nn1 (stereo not given)		0.915
CSCCNC(=O)C1CCN(c2nc(C)c3cc(C)c(C)cc3n2)CC1	0.839	
O=C(c1cccc2ccccc12)N1CCCC(Nc2ccccc2)C1 (stereo not given)		0.936
CC(C)c1ccc(CN2CCCC3(CCN(C(=O)c4cccnc4)C3)C2)cc1 (stereo not given)	0.753	
O=C1CCC(CCC(=O)N2CCCC2c2ccc(F)cc2)(Cc2ccc(F)cc2)N1 (stereo not given)	0.858	
CC#CCN1C(=O)NC(CCc2ccccc2)(C2CCN(CCC(C)c3ccccc3)CC2)C1=O (stereo not given)	0.742	
O=C(C1=CCCCC1)N1CCC2(CCCN(Cc3ccccc3F)C2)C1 (stereo not given)		0.969
Cc1ncc2c(c1CNS(=O)(=O)N(C)C)CCN(C(=O)c1cc3ccccc3n1C)C2	0.763	
COc1ccccc1N1CCN(c2ncccc2CNC(=O)c2cnc[nH]2)CC1	0.788	
CCOC(=O)C1(CCc2ccccc2)CCN(C(=O)c2ccc(COC)o2)CC1		0.602
COc1ccc(CN2C(=O)O[C@@H]3CN(Cc4ccccn4)C[C@@H]32)cc1OC		1.14
COC(=O)C1CCN(C(=O)c2cc(NC(=O)CC3CCCC3)cc3nc(C4CCCO4)n(C)c23)CC1 (stereo not given)	0.776	
CCOC(=O)c1n[nH]cc1CN1CCCC(Cc2ccccc2)(C(=O)OCC)C1 (stereo not given)		0.922
COC(=O)[C@@H]1CCCN1C(=O)c1ccc(OC2CCN(Cc3ccccn3)CC2)cc1	0.952	
CC(C)c1cc(C(=O)N2CCc3onc(-c4ccccc4F)c3C2)nc(N)n1	0.664	
O=C(NCc1cccnc1)C1CCN(C2CCN(C/C=C/c3ccccc3)CC2)CC1		0.884
Cc1ccc(-n2cccn2)c(CNC2COc3ccccc3C2)c1 (stereo not given)		1.1
O=C(C1CCCC1)N1CCC(C2CCN(Cc3ccc(Cl)cc3)C2)CC1 (stereo not given)	0.69	
O=C(NCC1CCCN(Cc2nc(-c3ccccc3)cs2)C1)c1ccc2c(c1)OCO2 (stereo not given)		0.805
CCN1CCN(C2(C(=O)NCCC3CCCN3C)Cc3ccccc3C2)CC1 (stereo not given)	0.789	
CN(C(=O)c1cccc(N2CCNC2=O)c1)C1CCCN(CCc2ccccc2)C1 (stereo not given)		1.23
Clc1ccccc1OC1CCN(Cc2nc(-c3ccccc3)no2)CC1		0.645

Random excerpt: two records from the list, in no set order.
SMILES	bacterial growth OD600 (polymyxin B 0.75 µg/mL)	bacterial growth OD600 (polymyxin B 1 µg/mL)
Cc1ncc2c(c1CNS(=O)(=O)N(C)C)CCN(C(=O)c1cc3ccccc3n1C)C2	0.763	
CCN(CC)C(=O)Cn1cc(C(=O)NCCC(c2ccccc2)c2ccco2)nn1 (stereo not given)		0.915
